Assays:
[1] = general procedure: Fmoc solid-phase peptide synthesis; Phenylalanine-2-chlorotrityl resin (0.55 mmol/gram); HATU/DIEA (solid phase); DEPC/DIEA (solution); settings: for final HPLC purity: Reversed-phase HPLC analysis; for isolated yield: on resin loading
[2] = general procedure: Fmoc solid-phase peptide synthesis; 2-chlorotrityl resin; HATU/DIEA (solid phase); DEPC/DIEA (solution); settings: whole synthesis, scale 0.044 mmol
[3] = whole synthesis, scale of the general procedure 0.55 mmol
[4] = whole synthesis, scale 0.088 mmol
[5] = whole synthesis, scale 0.053 mmol

Maleimidocaproyl-Val-Cit-MMAF
final HPLC purity [1, 3]: 98%
isolated yield [1, 4]: 27%
isolated mass [1, 4]: 28 mg

Maleimidocaproyl-Val-Cit-PABC-MMAF
final HPLC purity [1, 3]: 98% pure
isolated yield [1, 5]: 21%
isolated mass [1, 5]: 15 mg

Maleimidocaproyl-Val-Cit-PABC-MMAF-OMe
conjugation yield ([1]; conjugation step): 52%
final HPLC purity ([1]; conjugation step): 95%

MeVal-Val-Dil-Dap-Phe
isolated mass [2]: 27 mg
final HPLC purity [1, 3]: 95%
isolated yield ([1]; whole synthesis, scale 0.044 mmol): 73%

Reference: US8512707B2 (Seattle Genetics, Inc., priority 2006, dated 2013)
